From patent US10435385B2, “Amide derivatives, process for preparation thereof and use thereof as insecticide” (MITSUI CHEMICALS, INC., priority 2004, dated 2019)
Some entries share one result that the patent states for a list of compounds.

What was measured:
[1] = test system: common cutworm (Spodoptera litura); experiment: Insecticidal testing against common cutworm (cabbage leaf dip, second-stage larvae); assay type: in vivo; settings: concentration of 100 ppm, survival rate investigated after 3 days, 25° C.
Description: (§1) Insecticidal Testing Against Common Cutworm (Spodoptera litura) Cabbage leaves were immersed in a liquid comprising the testing compound to a predetermined concentration for 30 seconds and air-dried. They were placed in a 7-cm polyethylene cup, and the second-stage larvae of common cutworm were left therein. The cup was placed in a constant-temperature room at 25° C., and the survival rate was investigated after 3 days. The test was carried out with two groups of 5 larvae per group. As a result, Compound No. (to be described later)

[2] = test system: diamondback moth (Plutella xylostella); experiment: Insecticidal testing against diamondback moth (cabbage leaf dip, second-stage larvae); assay type: in vivo; settings: concentration of 100 ppm, survival rate investigated after 3 days, 25° C.
Description: as §1, with “Diamondback Moth (Plutella xylostella)” for “Common Cutworm (Spodoptera litura)”, “diamondback moth” for “common cutworm”

SMILES | pesticidal rate [1] [%] | pesticidal rate [2] [%]
Cc1cc(C(F)(C(F)(F)F)C(F)(F)F)cc(C)c1NC(=O)c1cccc(NC(=O)c2cccc([N+](=O)[O-])c2)c1F [compound 606] | ≥ 70 | ≥ 70
Cc1cc(C(F)(C(F)(F)F)C(F)(F)F)cc(C)c1N(C)C(=O)c1cccc(NC(=O)c2ccccc2)c1F [compound 1485] | ≥ 70 | ≥ 70
Cc1cc(C(F)(C(F)(F)F)C(F)(F)F)cc(C)c1NC(=O)c1cccc(NC(=O)c2ccccc2[N+](=O)[O-])c1F [compound 605] | ≥ 70 | ≥ 70
O=C(Nc1c(Cl)cc(S(=O)(=O)C(F)(C(F)(F)F)C(F)(F)F)cc1Cl)c1cccc(NC(=O)c2ccccc2F)c1 [compound 378] | ≥ 70 | ≥ 70
Cc1cc(C(F)(C(F)(F)F)C(F)(F)F)cc(C)c1NC(=O)c1cccc(NC(=O)c2ccc(F)c(Cl)c2)c1 [compound 85] | ≥ 70 | ≥ 70
Cc1cc(C(F)(C(F)(F)F)C(F)(F)C(F)(F)F)cc(C)c1NC(=O)c1cccc(NC(=O)c2ccc(F)cc2)c1F (stereo not shown) [compound 670] | ≥ 70 | ≥ 70
O=C(Nc1cccc(C(=O)Nc2c(Cl)cc(S(=O)(=O)C(F)(C(F)(F)F)C(F)(F)F)cc2Cl)c1)c1ccccc1 [compound 379] | ≥ 70 | ≥ 70
CN(C(=O)c1cccc(NC(=O)c2ccccc2)c1)c1c(Br)cc(SC(F)(F)C(F)(F)C(F)(F)F)cc1Br [compound 1480] | ≥ 70 | ≥ 70
Cc1cc(C(F)(C(F)(F)F)C(F)(F)F)cc(C)c1NC(=O)c1cccc(NC(=O)c2ccccc2I)c1F [compound 616] | ≥ 70 | ≥ 70
Cc1cc(C(F)(C(F)(F)F)C(F)(F)F)cc(C)c1NC(=O)c1cccc(NC(=O)c2cn(C)nc2C(F)(F)F)c1 [compound 150] | ≥ 70 | ≥ 70
Cc1cc(C(F)(C(F)(F)F)C(F)(F)F)cc(C)c1NC(=S)c1cccc(NC(=O)c2ccccc2)c1 [Compound No. 2201, N-(2,6-dimethyl-4-heptafluoroisopropyl)phenyl 3-(benzoylamino)benzthioamide] | ≥ 70 | ≥ 70
Cc1cc(C(F)(C(F)(F)F)C(F)(F)F)cc(C)c1NC(=O)c1cccc(NC(=O)c2ccccn2)c1 [compound 100] | ≥ 70 | ≥ 70
Cc1cc(C(F)(C(F)(F)F)C(F)(F)F)cc(C)c1NC(=O)c1cccc(NC(=O)c2ccc(Cl)cc2[N+](=O)[O-])c1 [compound 87] | ≥ 70 | ≥ 70
Cc1cc(C(F)(C(F)(F)F)C(F)(F)F)cc(C)c1NC(=O)c1cccc(NC(=O)c2ccc3c(c2)OC(F)(F)O3)c1 [compound 160] | ≥ 70 | ≥ 70
Cc1cc(C(F)(C(F)(F)F)C(F)(F)F)cc(C)c1N(C)C(=O)c1cccc(NC(=O)c2ccccc2F)c1F [compound 1486] | ≥ 70 | ≥ 70
Cc1cc(C(F)(C(F)(F)F)C(F)(F)F)cc(C)c1NC(=O)c1cccc(NC(=O)c2ccc(Cl)cc2F)c1 [compound 86] | ≥ 70 | ≥ 70
Cc1cc(C(F)(C(F)(F)F)C(F)(F)F)cc(C)c1NC(=O)c1cccc(NC(=O)c2ccc(C#N)cc2)c1 [Compound No. 30] | ≥ 70 | ≥ 70
O=C(Nc1cccc(C(=O)Nc2c(Br)cc(SC(F)(C(F)(F)F)C(F)(F)F)cc2Br)c1)c1ccccc1 [compound 332] | ≥ 70 | ≥ 70
Cc1cc(C(F)(C(F)(F)F)C(F)(F)F)cc(C)c1NC(=O)c1cccc(NC(=O)c2cc(F)ccc2F)c1 [compound 61] | ≥ 70 | ≥ 70
Cc1ccccc1C(=O)Nc1cccc(C(=O)Nc2c(C)cc(C(F)(C(F)(F)F)C(F)(F)F)cc2C)c1F [compound 602] | ≥ 70 | ≥ 70
O=C(Nc1c(Br)cc(S(=O)(=O)C(F)(F)C(F)(F)C(F)(F)F)cc1Br)c1cccc(NC(=O)c2ccccc2F)c1 [compound 383] | ≥ 70 | ≥ 70
Cc1cc(C(F)(C(F)(F)F)C(F)(F)F)cc(C)c1NC(=O)c1cccc(NC(=O)c2ccc(F)cc2[N+](=O)[O-])c1F [compound 629] | ≥ 70 | ≥ 70
Cc1cccc(C(=O)Nc2cccc(C(=O)Nc3c(C)cc(C(F)(C(F)(F)F)C(F)(F)F)cc3C)c2)c1C [compound 56] | ≥ 70 | ≥ 70
O=C(Nc1cccc(C(=O)Nc2c(Br)cc(SC(F)(F)C(F)(F)C(F)(F)F)cc2Br)c1)c1ccc(Cl)nc1 [compound 310] | ≥ 70 | ≥ 70

SMILES | pesticidal rate [1] [%] | pesticidal rate [2] [%]
Cc1cc(C(F)(C(F)(F)F)C(F)(F)F)cc(Br)c1NC(=O)c1cccc(NC(=O)c2ccccc2)c1 [compound 163] | ≥ 70 | ≥ 70
O=C(Nc1cccc(C(=O)Nc2c(Br)cc(SC(F)(F)C(F)(F)C(F)(F)C(F)(F)F)cc2Br)c1)c1ccccc1 [compound 333] | ≥ 70 | ≥ 70
CSc1cc(C(F)(C(F)(F)F)C(F)(F)F)cc(Br)c1NC(=O)c1cccc(NC(=O)c2ccccc2)c1 [compound 198] | ≥ 70 | ≥ 70
O=C(Nc1cccc(C(=O)Nc2c(Br)cc(SC(F)(F)C(F)(F)F)cc2Br)c1)c1ccccc1 [compound 258] | ≥ 70 | ≥ 70
O=C(Nc1c(Br)cc(SC(F)(F)C(F)(F)C(F)(F)F)cc1Br)c1cccc(NC(=O)c2ccccc2F)c1 [compound 266] | ≥ 70 | ≥ 70
Cc1cc(C(F)(C(F)(F)F)C(F)(F)F)cc(C)c1NC(=O)c1cccc(NC(=O)c2cccc(F)c2)c1 [compound 18] | ≥ 70 | ≥ 70
O=C(Nc1c(Cl)cc(SC(F)(C(F)(F)F)C(F)(F)F)cc1Cl)c1cccc(NC(=O)c2cccnc2Cl)c1 [compound 331] | ≥ 70 | ≥ 70
Cc1cc(C(F)(C(F)(F)F)C(F)(F)F)cc(C)c1NC(=O)c1cccc(NC(=O)c2ccc(Cl)cc2[N+](=O)[O-])c1F [compound 634] | ≥ 70 | ≥ 70
Cc1cc(C(F)(F)C(F)(F)C(F)(F)F)cc(C)c1NC(=O)c1cccc(NC(=O)c2ccccc2)c1 [compound 9] | ≥ 70 | ≥ 70
Cc1cc(SC(F)(F)C(F)(F)C(F)(F)F)cc(C)c1NC(=O)c1cccc(NC(=O)c2ccccc2)c1 [Compound No. 260, N-(2,6-dimethyl-4-heptafluoro-n-propylthio)phenyl 3-(benzoylamino)benzamide] | ≥ 70 | ≥ 70
Cc1cc(C(F)(C(F)(F)F)C(F)(F)F)cc(C)c1NC(=O)c1cccc(NC(=O)C2CCCO2)c1 (stereo not shown) [compound 127] | ≥ 70 | ≥ 70
CN(C(=O)c1cccc(NC(=O)c2ccccc2F)c1)c1c(Br)cc(SC(F)(F)C(F)(F)C(F)(F)F)cc1Br [compound 1481] | ≥ 70 | ≥ 70
CCC(C)c1cc(C(F)(C(F)(F)F)C(F)(F)F)cc(I)c1NC(=O)c1cccc(NC(=O)c2ccccc2)c1 (stereo not shown) [compound 196] | ≥ 70 | ≥ 70
Cc1cc(C(F)(C(F)(F)F)C(F)(F)F)cc(C)c1NC(=O)c1cccc(N(C)C(=O)c2ccccc2C(F)(F)F)c1 [compound 1016] | ≥ 70 | ≥ 70
O=C(Nc1c(Cl)cc(S(=O)(=O)C(F)(F)F)cc1Cl)c1cccc(NC(=O)c2c(F)cccc2F)c1 [compound 375] | ≥ 70 | ≥ 70
O=C(Nc1cccc(C(=O)Nc2c(Cl)cc(SC(F)(F)C(F)(F)C(F)(F)F)cc2Cl)c1)c1ccccc1 [compound 262] | ≥ 70 | ≥ 70
Cc1cc(C(F)(C(F)(F)F)C(F)(F)C(F)(F)F)cc(C)c1NC(=O)c1cccc(N(C)C(=O)c2ccc(OC(F)(F)F)cc2)c1F (stereo not shown) [compound 1274] | ≥ 70 | ≥ 70
Cc1cc(OC(F)(C(F)(F)F)C(F)(F)F)nc(Br)c1NC(=O)c1cccc(NC(=O)c2ccccc2F)c1 [compound 462] | ≥ 70 | ≥ 70
O=C(Nc1c(Br)cc(SC(F)(F)C(F)(F)C(F)(F)F)cc1Br)c1cccc(NC(=O)c2c(F)cccc2F)c1 [compound 284] | ≥ 70 | ≥ 70
Cc1cc(C(F)(C(F)(F)F)C(F)(F)C(F)(F)F)cc(C)c1NC(=O)c1cccc(N(C)C(=O)c2ccc(F)cc2)c1F (stereo not shown) [compound 1267] | ≥ 70 | ≥ 70
O=C(Nc1cccc(C(=O)Nc2c(Br)cc(C(F)(F)C(F)(F)F)cc2Br)c1)c1ccccc1 [Compound No. 4] | ≥ 70 | ≥ 70
O=C(Nc1c(Br)cc(SC(F)(F)C(F)(F)C(F)(F)C(F)(F)F)cc1Br)c1cccc(NC(=O)c2ccccc2F)c1 [compound 334] | ≥ 70 | ≥ 70
O=C(Nc1cccc(C(=O)Nc2c(Br)cc(SC(F)(F)F)cc2Br)c1)c1ccccc1 [compound 256] | ≥ 70 | ≥ 70
